Assay results from PMC6776368.
No constants are given. Whether binding was seen depends on the method and setting. Binding seen in cells or lysates may run through a third protein. Some entries that bind do so weakly or less than the wild type.

Sequences of proteins named here, by UniProt entry; tags and fusion partners are left off.
UniProt Q6PH56: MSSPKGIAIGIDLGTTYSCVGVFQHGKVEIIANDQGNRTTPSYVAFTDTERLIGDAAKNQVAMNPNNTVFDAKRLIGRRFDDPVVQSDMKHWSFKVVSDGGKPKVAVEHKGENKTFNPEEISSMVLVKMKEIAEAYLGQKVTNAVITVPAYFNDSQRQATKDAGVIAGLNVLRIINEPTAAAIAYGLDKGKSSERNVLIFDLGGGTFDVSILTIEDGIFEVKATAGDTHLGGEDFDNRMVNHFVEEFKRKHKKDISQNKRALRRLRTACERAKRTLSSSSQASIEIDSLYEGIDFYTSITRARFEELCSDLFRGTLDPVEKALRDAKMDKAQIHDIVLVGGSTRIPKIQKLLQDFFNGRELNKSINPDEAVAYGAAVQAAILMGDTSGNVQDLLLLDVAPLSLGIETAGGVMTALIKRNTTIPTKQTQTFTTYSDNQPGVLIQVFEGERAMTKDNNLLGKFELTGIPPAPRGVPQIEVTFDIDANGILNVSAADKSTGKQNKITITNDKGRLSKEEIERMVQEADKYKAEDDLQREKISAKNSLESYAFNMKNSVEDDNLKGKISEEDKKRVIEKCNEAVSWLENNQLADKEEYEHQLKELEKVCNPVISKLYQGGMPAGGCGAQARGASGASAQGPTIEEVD

Assays:
Experiment in all cases: co-IP; HEK293T cells transiently transfected with C-terminally myc-tagged Marcks proteins and N-terminally HA-tagged Hsp70.3; blots with anti-Myc and anti-HA; which tag was precipitated is not stated
Marcksl1b (zebrafish) = target: T1, Marcksl1b (zebrafish) (UniProt Q6NWH2)
T1 sequence: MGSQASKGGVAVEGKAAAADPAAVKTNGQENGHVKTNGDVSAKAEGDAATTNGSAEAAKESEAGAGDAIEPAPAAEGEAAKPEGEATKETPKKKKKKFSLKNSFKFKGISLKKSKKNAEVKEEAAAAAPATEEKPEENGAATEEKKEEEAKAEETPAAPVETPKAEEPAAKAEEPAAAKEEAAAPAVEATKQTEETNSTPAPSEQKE

Marcksl1a (zebrafish) = target: T2, Marcksl1a (zebrafish) (UniProt Q6PD99)
T2 sequence: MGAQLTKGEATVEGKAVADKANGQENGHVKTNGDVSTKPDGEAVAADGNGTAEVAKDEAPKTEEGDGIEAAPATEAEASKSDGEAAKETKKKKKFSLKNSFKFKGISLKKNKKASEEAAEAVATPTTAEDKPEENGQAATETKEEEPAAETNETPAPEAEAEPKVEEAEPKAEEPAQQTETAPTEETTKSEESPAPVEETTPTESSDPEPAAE

Marcksb (zebrafish) = target: T3, Marcksb (zebrafish) (UniProt F6NXD5)
T3 sequence: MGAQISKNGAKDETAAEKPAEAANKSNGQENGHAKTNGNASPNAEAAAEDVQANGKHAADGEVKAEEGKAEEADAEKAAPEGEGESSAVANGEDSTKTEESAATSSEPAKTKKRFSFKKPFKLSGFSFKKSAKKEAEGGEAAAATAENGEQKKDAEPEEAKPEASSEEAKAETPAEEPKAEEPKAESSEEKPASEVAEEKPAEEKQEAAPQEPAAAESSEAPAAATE

- binding (Marcksl1b (zebrafish)): binds
- binding (Marcksl1a (zebrafish)): binds
- binding (Marcksb (zebrafish)): binds
Substance: Hsp70.3 (from UniProt Q6PH56 1-643)
